The results in this text go back to PubChem BioAssay AID192 (DTP/NCI, 2004).

The test has as its system BDF1 mice, B16 melanoma ip, median survival T/C. Kind of test: NCI In Vivo Anticancer Drug Screen. Data for tumor model B16 Melanoma (intraperitoneal) in B6D2F1 (BDF1) mice. The settings on record: T/C endpoint: median survival time, higher T/C = longer survival. As to the method:
The antitumor activity of compounds was measured in mice bearing transplantable tumors. Survival or tumor size were measured and the results are expressed as the measurement made in the treated group (T) divided by the measurement made in the vehicle treated control group (C). The tumor model used in this assay is B16 Melanoma (intraperitoneal) in B6D2F1 (BDF1) mice

Where [1] appears, read: dose: 1.0 mg/kg/injection, schedule: Q01DX009 (ip), vehicle: saline.
[2] abbreviates: dose: 2.0 mg/kg/injection, schedule: Q01DX009 (ip), vehicle: saline.
Setting [3] is: dose: 4.0 mg/kg/injection, schedule: Q01DX009 (ip), vehicle: saline.
Where [4] appears, read: dose: 8.0 mg/kg/injection, schedule: Q01DX009 (ip), vehicle: saline.
[5] abbreviates: dose: 16.0 mg/kg/injection, schedule: Q01DX009 (ip), vehicle: saline.
[6] abbreviates: dose: 400.0 mg/kg/injection, schedule: Q01DX009 (ip), vehicle: saline with Tween-80.
Where [7] appears, read: dose: 200.0 mg/kg/injection, schedule: Q01DX009 (ip), vehicle: saline with Tween-80.
[8] abbreviates: dose: 0.25 mg/kg/injection, schedule: Q01DX009 (ip), vehicle: saline.
The mark [9] stands for this setting: dose: 128.0 mg/kg/injection, schedule: Q01DX009 (ip), vehicle: saline.

The list shows only some results of the screen, not a fair sample: it gathers tests that were run many times, whatever their T/C, doses with no T/C, and many T/C values between a quarter and a half above the control. Other doses and runs of a compound stand elsewhere. T/C gives the treated animals as a percentage of the vehicle group. Some entries give survivors of the animals treated and no T/C: the source holds a T/C of zero for them, seemingly a mark for toxic or unscored doses. Some survivor counts are full or nearly so, which does not show that the dose was tolerated: survival well below the control is almost never listed, so the zero probably covers shortened survival too. Survivors were counted at the toxicity check, usually on the fifth day, unless a day is given; later deaths do not show. Schedule codes are those of the source, read here as Q, the interval in days (D) or hours (H), X, the number of doses. Marks such as (2×) count equal records among those shown. Some doses were run more than once; the values are given in rising order. For survival time, the PubChem record calls one and a half times the control and up active, and a quarter to a half above the control has no call in these data; cut-offs in other NCI protocols can differ. Some T/C values carry the count of animals alive at the toxicity check (mostly the fifth day); where none is given, no animal had died by that day. Numbered stars: 1 amine (or outer) side, 2 acyl side, 3 side chain; on linkers, the order of the positions; unused ones are H or OH. Bridge positions count the residues as written; N and C are the ends. Square brackets hold non-standard residues; d marks the D form. Peptide text beside a SMILES is read from it. I, II: the chains in the order shown. Actinocin(9to1) = Cc1c2oc3c(C)ccc(C(=O)[*:1])c3nc-2c(C(=O)[*:2])c(N)c1=O; NMeV = CN[CH](C(=O)O)C(C)C; Sar = CNCC(=O)O

In the case of `CCOC(=O)C(Br)C(=O)OCC`, the survivor count is, setting by setting: (dose: 9.37 mg/kg/injection, schedule: Q04DX003 (ip), vehicle: saline) 10 of 10; (dose: 18.75 mg/kg/injection, schedule: Q04DX003 (ip), vehicle: saline) 10 of 10; (dose: 37.5 mg/kg/injection, schedule: Q04DX003 (ip), vehicle: saline) 8 of 10; (dose: 75.0 mg/kg/injection, schedule: Q04DX003 (ip), vehicle: saline) 4 of 10.

Regarding `CCS/C(SC)=C(/c1ccccc1)[P+](c1ccccc1)(c1ccccc1)c1ccccc1`, the survivor count is 3 of 10 and 10 of 10 (dose: 3.0 mg/kg/injection, schedule: Q01DX009 (ip), vehicle: Klucel (hydroxypropylcellulose) (HPC)); 0 of 10 (dose: 6.0 mg/kg/injection, schedule: Q01DX009 (ip), vehicle: Klucel (hydroxypropylcellulose) (HPC)); 1 of 10 (dose: 12.0 mg/kg/injection, schedule: Q01DX009 (ip), vehicle: Klucel (hydroxypropylcellulose) (HPC)); 2 of 10 (dose: 24.0 mg/kg/injection, schedule: Q01DX009 (ip), vehicle: Klucel (hydroxypropylcellulose) (HPC)).

For the molecule `Cc1cc(SCC(=O)c2ccc(Br)cc2)cc(C)[o+]1`, the survivor count was 8 of 10 (dose: 50.0 mg/kg/injection, schedule: Q01DX009 (ip), vehicle: saline); 5 of 10 (dose: 100.0 mg/kg/injection, schedule: Q01DX009 (ip), vehicle: saline); 7 of 10 (dose: 200.0 mg/kg/injection, schedule: Q01DX009 (ip), vehicle: saline).

Take `C[n+]1cccc(NC(=O)c2ccc(NC(=O)C34CCC(C(=O)Nc5ccc(C(=O)Nc6ccc[n+](C)c6)cc5)(CC3)CC4)cc2)c1`: the T/C (dose: 5.0 mg/kg/injection, schedule: Q01DX009 (ip), vehicle: saline with Tween-80) was 136 % of control. Further, the survivor count (dose: 20.0 mg/kg/injection, schedule: Q01DX009 (ip), vehicle: saline with Tween-80) is 10 of 10 and the survivor count (dose: 40.0 mg/kg/injection, schedule: Q01DX009 (ip), vehicle: saline with Tween-80) is reported as 10 of 10.

Take `O=C(CCN1CCCCC1)c1cccc([N+](=O)[O-])c1`: the survivor count by setting is: (dose: 200.0 mg/kg/injection, schedule: Q04DX003 (ip), vehicle: Klucel (hydroxypropylcellulose) (HPC)) 2 of 10; (dose: 400.0 mg/kg/injection, schedule: Q04DX003 (ip), vehicle: Klucel (hydroxypropylcellulose) (HPC)) 0 of 10.

Turning to `OCCN1CCN(CC/C=C2\c3ccccc3Sc3ccc(Cl)cc32)CC1`, the T/C under setting [1] was 127 % of control, the T/C under setting [2] is 128 % of control and the T/C under setting [3] is 128 % of control. Further, the survivor count is, setting by setting: under setting [4], 9 of 10; under setting [5], 10 of 10.

For `COC(=O)C12OCC34C(CC5C(C)=C(O)C(=O)CC5(C)C3C(O)C1O)OC(=O)C(OC(=O)/C=C(\C)C(C)(C)O)C24` (stereo unspecified), the T/C runs as follows: (dose: 0.05 mg/kg/injection, schedule: Q01DX009 (ip), vehicle: saline with Tween-80) 130 % of control [9 of 10 alive]; (dose: 0.05 mg/kg/injection, schedule: Q01DX009 (ip), vehicle: saline) 133 % of control; (dose: 0.1 mg/kg/injection, schedule: Q01DX009 (ip), vehicle: saline with Tween-80) 139 % of control; (dose: 0.1 mg/kg/injection, schedule: Q01DX009 (ip), vehicle: saline) 125 % of control; (dose: 0.2 mg/kg/injection, schedule: Q01DX009 (ip), vehicle: saline with Tween-80) 140 and 147 % of control; (dose: 0.4 mg/kg/injection, schedule: Q01DX009 (ip), vehicle: saline with Tween-80) 144 % of control. For the same molecule, the T/C (dose: 0.8 mg/kg/injection, schedule: Q01DX009 (ip), vehicle: saline with Tween-80) is 140 % of control and the T/C (dose: 0.8 mg/kg/injection, schedule: Q01DX009 (ip), vehicle: saline) was 147 % of control.

With `CC(=O)OCC(CCC(C)C)=C(C)C`, the survivor count runs as follows: (dose: 200.0 mg/kg/injection, schedule: Q04DX003 (ip), vehicle: saline with Tween-80) 10 of 10; under setting [6], 10 of 10; (dose: 400.0 mg/kg/injection, schedule: Q04DX003 (ip), vehicle: saline with Tween-80) 10 of 10.

With `CCCC(=O)Oc1ccc(/C=N/NC(N)=S)nc1`, the T/C reads like this: (dose: 100.0 mg/kg/injection, schedule: Q01DX009 (ip), vehicle: saline with Tween-80) 130 % of control; under setting [7], 130 % of control. Moreover, the survivor count reads like this: under setting [6], 10 of 10 (2×); (dose: 600.0 mg/kg/injection, schedule: Q01DX009 (ip), vehicle: saline with Tween-80) 10 of 10.

For `CC(C)N(CCCO)C(C)C`, under setting [7], the survivor count is reported as 6 of 10.

Turning to `Cc1c2oc3c(C)ccc(C(=O)NC4C(=O)NC(C(C)C)C(=O)N5CCCC5C(=O)N(C)CC(=O)N(C)C(C(C)C)C(=O)OC4C)c3nc-2c(C(=O)NC2C(=O)NC(C(C)C)C(=O)N3CCCC3C(=O)N(C)CC(=O)N(C)C(C(C)C)C(=O)OC2C)c(N)c1=O` (stereo unspecified) (I: TVP[Sar][NMeV] / II: TVP[Sar][NMeV]; ester I:1-I:C, II:1-II:C; linker I:N-II:N via Actinocin(9to1); configuration not given here), the T/C runs as follows: (dose: 0.03 mg/kg/injection, schedule: Q01DX009 (ip), vehicle: saline) 126 and 128 % of control; (dose: 0.06 mg/kg/injection, schedule: Q01DX009 (ip), vehicle: saline) 142 % of control; under setting [8], 101, 167, 188 % of control. The survivor count is, setting by setting: under setting [8], 10 of 10; (dose: 0.5 mg/kg/injection, schedule: Q01DX009 (ip), vehicle: saline) 9 of 10 and 10 of 10; under setting [1], 5 of 10 and 10 of 10; under setting [2], 1 of 10 and 3 of 10; under setting [3], 0 of 10.

Turning to `COc1ccc(C[C@H](N)C(=O)NC2C(CO)OC(n3cnc4c(N(C)C)ncnc43)C2O)cc1` (stereo partly specified), the T/C is, setting by setting: under setting [4], 130 % of control; (dose: 10.0 mg/kg/injection, schedule: Q01DX009 (ip), vehicle: saline) 133 % of control; under setting [5], 139 % of control; (dose: 20.0 mg/kg/injection, schedule: Q01DX009 (ip), vehicle: saline) 135 % of control; (dose: 40.0 mg/kg/injection, schedule: Q01DX009 (ip), vehicle: saline) 125 and 137 % of control; (dose: 64.0 mg/kg/injection, schedule: Q01DX009 (ip), vehicle: saline) 132 and 142 % of control. In addition, the T/C was 134 % of control (dose: 80.0 mg/kg/injection, schedule: Q01DX009 (ip), vehicle: saline) and 142 % of control under setting [9]. The survivor count is, setting by setting: under setting [9], 5 of 5; (dose: 160.0 mg/kg/injection, schedule: Q01DX009 (ip), vehicle: saline) 9 of 10 and 10 of 10; (dose: 256.0 mg/kg/injection, schedule: Q01DX009 (ip), vehicle: saline) 1 of 5; (dose: 320.0 mg/kg/injection, schedule: Q01DX009 (ip), vehicle: saline) 0 of 10 and 1 of 10.

Consider `CCC1OC(=O)CC(O)C(C)C(OC2OC(C)CC(N(C)C)C2O)C(CC=O)CC(C)C(=O)/C=C/C2(C)OC2C1C` (stereo unspecified), for which the survivor count is, setting by setting: (dose: 12.5 mg/kg/injection, schedule: Q01DX009 (ip), vehicle: Klucel (hydroxypropylcellulose) (HPC)) 7 of 7; (dose: 25.0 mg/kg/injection, schedule: Q01DX009 (ip), vehicle: Klucel (hydroxypropylcellulose) (HPC)) 6 of 7; (dose: 50.0 mg/kg/injection, schedule: Q01DX009 (ip), vehicle: Klucel (hydroxypropylcellulose) (HPC)) 10 of 10; (dose: 200.0 mg/kg/injection, schedule: Q01DX009 (ip), vehicle: Klucel (hydroxypropylcellulose) (HPC)) 8 of 10.
